The record followed here is US12004506B2 (priority 2013, dated 2024).

A short description of one data set: peptide synthesis. The note with it: whole synthesis, acetate salt.
“Cyclo(CGQREAPAGAAAKPWYC) (cyclic; cyclized compound having a disulphide bridge; DISULFID (1)..(17))”: the “final purity (method not given)” value was determined as 95%.

The nature of a further data set: general procedure: Fmoc solid-phase peptide synthesis; 2-chlorotritylchloride resin; Diisopropyl carbodiimide and N-hydroxy benzotriazole. The settings on record: whole synthesis, acetate salt.
Take Cyc1o(β-a1anine-GQRETPEGAEAKPWYE): the “final purity (method not given)” value was found to be 100%.

In the case of “Cyclo(4-aminobutanoic acid-GQRETPEGAEAKPWYD)”, the “final purity (method not given)” value is 100%.

Turning to Cyclo(CGQRETPEGAEAKPWYC), the “final purity (method not given)” value was 96.3%.

For Cyclo(KGQRETPEGAEAKPWYG), the “final purity (method not given)” value came out at 98.8%. Still for that read-out and setting: next, Cyclo(KSPGQRETPEGAEAKPWYE): 96.3%; Cyclo(ornithine-GQRETPEGAEAKPWYG): 97.4%.
